# Results: PubChem BioAssay AID2284379 (EPA ToxCast)
# The list shows a part of the results, in another mix than the full data. Records with an inconclusive call do not appear. Active and inactive are the calls of the source. The calls were made as follows: active = hit-call score of the fitted dose curve at least 0.9, where 1 is the maximum; inconclusive = response in the unintended direction; inactive = score below 0.9.
# Assay: ATG_M_32_EcoTox2: Attagene TRANS-FACTORIAL EcoTox-2 HepG2 Assay for M32 Transcription Factor (Internal Marker)
# Procedure: ATG_EcoTox2 is a cell-based, multiplexed assay created by modifying the existing Attagene TRANS-FACTORIAL system to include a panel of nuclear receptors from some or all the following species: human (Homo sapiens), african clawed frog (Xenopus laevis), rainbow trout (Oncorhynchus mykiss), japanese medaka (Oryzias latipes), and zebrafish (Danio rerio). The ECOTOX2-FACTORIAL format uses HepG2, a human liver cell line, with measurements taken at 24 hours after chemical dosing in a 24-well plate. ATG_M_32_EcoTox2 is one of 29 assay components calculated in the ATG_EcoTox2 assay. It is designed to make measurements of mRNA induction, a form of inducible reporter, as detected with fluorescence intensity signals by Reverse transcription polymerase chain reaction (RT-PCR) and Capillary electrophoresis technology.The assay endpoint ATG_M_32_EcoTox2 was analyzed in the positive analysis fitting direction relative to DMSO as the negative control and baseline of activity. Using a type of inducible reporter, measures of mRNA for gain-of-signal activity can be used to understand the background control at the transcription factor-level as they relate to the gene. Furthermore, this assay endpoint can be referred to as a secondary readout, because this assay has produced multiple assay endpoints where this one serves a background control function. […]
compound,measurement,value
C[C@]12C=CC(=O)C=C1CC[C@@H]1[C@@H]2C(=O)C[C@@]2(C)[C@H]1CC[C@]2(O)C(=O)CO,outcome,inactive
